These are yes or no findings as the source states them, for the method shown. Some entries that bind do so weakly or less than the wild type.
How the values were obtained:
[1] = biological target: recombinant human TNF-alpha (Life Technologies) (human) (UniProt P01375); experiment: Biacore SPR: conjugate fixed to the sensor chip via an amino group, recombinant human TNF-alpha as analyte at 0.78-100 nM
[2] = biological target: recombinant human TNF-alpha (Life Technologies) (human) (UniProt P01375); experiment: depletion of TNF-alpha from medium with the conjugate and diol Sepharose beads; remaining TNF-alpha measured by ELISA
[3] = biological target: recombinant human TNF-alpha (Life Technologies) (human) (UniProt P01375); experiment: SPR (Biacore)
[4] = biological target: recombinant human TNF-alpha (Life Technologies) (human) (UniProt P01375); experiment: depletion assay: serially diluted conjugate mixed with human TNF-alpha (100% = 6.2 ng/mL), complex adsorbed on diol Sepharose beads, TNF-alpha remaining in the supernatant measured by ELISA; 1st experiment
[5] = biological target: recombinant human TNF-alpha (Life Technologies) (human) (UniProt P01375); experiment: depletion assay: serially diluted conjugate mixed with human TNF-alpha (100% = 6.2 ng/mL), complex adsorbed on diol Sepharose beads, TNF-alpha remaining in the supernatant measured by ELISA; 2nd experiment

The chains behind the UniProt entries cited, without tags or fusion partners. Residues count along the entry.
UniProt P01375, residues 77-233: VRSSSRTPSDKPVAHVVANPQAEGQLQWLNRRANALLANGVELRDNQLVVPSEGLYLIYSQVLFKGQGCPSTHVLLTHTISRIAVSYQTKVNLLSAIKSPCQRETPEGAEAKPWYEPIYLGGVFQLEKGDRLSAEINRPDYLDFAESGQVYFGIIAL

Measured: binding

B1: conjugate of the extracellular region of human TNF receptor 2 (TNFR2) and mutant recombinant human intelectin-1 (S165A) (receptor)
chain: LPAQVAFTPYAPEPGSTCRLREYYDQTAQMCCSKCSPGQHAKVFCTKTSDTVCDSCEDSTYTQLWNWVPECLSCGSRCSSDQVETQACTREQNRICTCRPGWYCALSKQEGCRLCAPLRKCRPGFGVARPGTETSDVVCKPCAPGTFSNTTSSTDICRPHQICNVVAIPGNASMDAVCTSTSPTRSMAPGAVHLPQPVSTRSQHTQPTPEPSTAPSTSFLLPMGPSPPAEGSTGDGTDEANTYFKEWTCSSSPSLPRSCKEIKDECPSAFDGLYFLRTENGVIYQTFCDMTSGGGGWTLVASVHENDMRGKCTVGDRWSSQQGSKADYPEGDGNWANYNTFGSAEAATSDDYKNPGYYDIQAKDLGIWHVPNKSPMQHWRNSALLRYRTDTGFLQTLGHNLFGIYQKYPVKYGEGKCWTDNGPVIPVVYDFGDAQKTASYYSPYGQREFTAGFVQFRVFNNERAANALCAGMRVTGCNTEHHCIGGGGYFPEASPQQCGDFSGFDWSGYGTHVGYSSSREITEAAVLLFYR
binds: [1] | [2] | [3] | [4] | [5]
